Measured values published in PubChem BioAssay AID595 (National Center for Advancing Translational Sciences (NCATS), 2007).
Out of some 71,000 compounds screened, about 310 (0.44%) were called active. Inconclusive results, whose numbers are uncertain, are shown with a selection of clear calls. Calls follow the shape of the dose curve; as a rule, active = well fitted curve in either direction with a large enough effect; inconclusive = small, poorly fitted or top-dose-only effect, or another doubt; inactive = flat fitted curve, though single readings scatter. Potencies of inconclusive entries are doubtful fits and often do not repeat.

Test system: Hsp90 C-terminal peptide / TPR2A (Hop) interaction, human
Assay: qHTS Assay for Disrupters of an Hsp90 Co-Chaperone Interaction
Conditions: AlphaScreen TPR2A-His6 binding biotin-Hsp90 C-terminal peptide; activity change, negative = inhibition: at 57 µM (top of the series) unless noted
% is scaled to controls: 0 for no effect and ±100 for the full control effect; potency is read from the fitted curve at half-maximal effect.

| Structure (SMILES) | Potency | activity change, negative = inhibition |
| --- | --- | --- |
| c1ccc(-c2nc3nonc3nc2-c2ccccc2)cc1 | inconclusive: 25.1 µM [inhibitor, partial curve] |  |
| O=C(Nc1cccnc1N1CCOCC1)c1ccco1 |  | inconclusive: 46.8% |
| CC(C)CN1CCCC2(CCN(C(=O)c3cc(C(F)(F)F)cc(C(F)(F)F)c3)CC2)C1 | inconclusive: 31.6 µM [inhibitor, single point] |  |
| O=C(C1=C(O)C(=O)N(CCN2CCOCC2)C1c1ccccn1)c1cccs1 (configuration not stated) | inconclusive: 20 µM [inhibitor, single point] |  |
| CC(C)(C)c1ccc(S(=O)(=O)N2CCCCC2C(=O)NCc2ccccn2)cc1 (configuration not stated) | inconclusive: 25.1 µM [inhibitor, single point] |  |
| COc1ccc2c(c1)c(=O)oc1cc(OCC(=O)N3CCC(C)CC3)ccc12 |  | inactive |
| N[C@@H](Cc1c[nH]c2ccccc12)C(=O)NCC(=O)O |  | inactive |
| COc1ccc(-c2noc(CCCc3ccccc3)n2)cc1OC | inconclusive: 31.6 µM [activator, single point] |  |
| CN(C)CC(C)(C)CN1c2ccccc2Sc2ccccc21 |  | inactive: -8.55% [at 11 µM] |
| COCCn1c(=O)c(-c2cc(F)cc(F)c2)nc2cnc(Oc3cccc(Cl)c3)nc21 |  | inactive |
| COC(=O)c1ccccc1NC(=O)N1c2ccccc2CC1C (configuration not stated) | inconclusive: 25.1 µM [activator, single point] |  |
| CN(C)CCN1C(=O)C(=O)/C(=C(/O)c2ccc(F)cc2)C1c1ccccc1 (configuration not stated) |  | inconclusive: 46.6% |
| O=C(CN1c2cccc3cccc(c23)S1(=O)=O)NCc1ccc2c(c1)OCO2 |  | inconclusive: 69% [at 11 µM] |
| O=C(NC1CCCCC1)C1CCCN(S(=O)(=O)c2cnc[nH]2)C1 (configuration not stated) |  | inconclusive: 49% |
| O=C1C(=O)N(CCCn2ccnc2)C(c2cccnc2)/C1=C(/O)c1ccc(Cl)cc1 (configuration not stated) | inconclusive: 3.16 µM [inhibitor, partial curve] |  |
| CC(=O)Nc1ccc(NS(=O)(=O)c2cc(C)sc2C)cc1 |  | inconclusive: 47.4% |
| COc1cc(NC(=O)COc2ccc(F)cc2)nc(OC)n1 |  | inconclusive: 52.3% [at 11 µM] |
| COc1ccccc1N1C(=O)N(C(C)=O)C2C1Nc1ccccc1N2C (configuration not stated) | inconclusive: 10 µM [inhibitor, partial curve] |  |
| Cc1ccc(NC2c3ncccc3C(=O)N2c2ccccc2C)cc1C (configuration not stated) |  | inactive |
| COc1cccc(-c2cc(C(=O)Nc3cccc(O)c3)no2)c1 |  | inconclusive: 51.1% |
| COc1cccc(-c2cn3nc(C)c(C)nc3n2)c1 |  | inactive |
| COc1ccc(OC)c(C(C)NC=O)c1 (configuration not stated) |  | inconclusive: 36.6% |
| COc1cc(OC)cc(-c2nc(-c3ccccc3)no2)c1 | inconclusive: 25.1 µM [activator, single point] |  |
| CCOC(=O)c1[nH]c(C)c(C(=O)N2CCN(C(=O)c3ccco3)CC2)c1C |  | inconclusive: 31.1% |
| COC(=O)C1CCN(C(=O)c2cc(OC)c(OC)c(OC)c2)CC1 |  | inconclusive: 42.8% |
| COc1cccc(CNC(=O)C2CCCN(S(=O)(=O)c3cnc[nH]3)C2)c1 (configuration not stated) |  | inconclusive: 50.7% |

Part of the list above, set out differently:
Structure (SMILES)	Potency	activity change, negative = inhibition
O=C(Nc1cccnc1N1CCOCC1)c1ccco1		inconclusive: 46.8%
O=C(C1=C(O)C(=O)N(CCN2CCOCC2)C1c1ccccn1)c1cccs1 (configuration not stated)	inconclusive: 20 µM [inhibitor, single point]	
COc1ccc2c(c1)c(=O)oc1cc(OCC(=O)N3CCC(C)CC3)ccc12		inactive
N[C@@H](Cc1c[nH]c2ccccc12)C(=O)NCC(=O)O		inactive
COC(=O)c1ccccc1NC(=O)N1c2ccccc2CC1C (configuration not stated)	inconclusive: 25.1 µM [activator, single point]	
CN(C)CCN1C(=O)C(=O)/C(=C(/O)c2ccc(F)cc2)C1c1ccccc1 (configuration not stated)		inconclusive: 46.6%
O=C(CN1c2cccc3cccc(c23)S1(=O)=O)NCc1ccc2c(c1)OCO2		inconclusive: 69% [at 11 µM]
COc1ccccc1N1C(=O)N(C(C)=O)C2C1Nc1ccccc1N2C (configuration not stated)	inconclusive: 10 µM [inhibitor, partial curve]	
Cc1ccc(NC2c3ncccc3C(=O)N2c2ccccc2C)cc1C (configuration not stated)		inactive
COc1ccc(OC)c(C(C)NC=O)c1 (configuration not stated)		inconclusive: 36.6%
COc1cc(OC)cc(-c2nc(-c3ccccc3)no2)c1	inconclusive: 25.1 µM [activator, single point]	
COc1cccc(CNC(=O)C2CCCN(S(=O)(=O)c3cnc[nH]3)C2)c1 (configuration not stated)		inconclusive: 50.7%

The list goes on.

| Structure (SMILES) | Potency | activity change, negative = inhibition |
| --- | --- | --- |
| COc1ccc(-c2noc(Cc3ccc(Cl)cc3)n2)cc1OC | inconclusive: 31.6 µM [activator, single point] |  |
| CCn1cnc2sc(C(=O)N(Cc3ccc(N(C)C)cc3)Cc3ccco3)c(C)c2c1=O | inconclusive: 25.1 µM [inhibitor, single point] |  |
| COC(=O)CSc1nc(-c2ccccc2)cc(-c2ccco2)c1C#N | inconclusive: 25.1 µM [activator, single point] |  |
| CSc1nc(C)cc(Nc2ccc(O)c(CN3CCOCC3)c2)n1 |  | inconclusive: 86.8% [at 11 µM] |
| COc1ccc(-c2cc(C(=O)Nc3c(C)nn(Cc4ccc(Cl)cc4)c3C)no2)cc1 |  | inactive |
| O=c1nc(C(F)(F)F)nc2ccccn12 |  | inconclusive: 50.3% |
| COc1ccc(C2CC(=O)C3=C(C2)NC(C)=C(C#N)C3c2ccc(N(C)C)cc2)cc1 (configuration not stated) | inconclusive: 39.8 µM [inhibitor, single point] |  |
| CCOC(=O)Nc1ccc(S(=O)(=O)Nc2nccc(C)n2)cc1 |  | inconclusive: 45.1% |
| Cc1cc(N2CCCCC2)nc2ccc(Cc3ccc4nc(N5CCCCC5)cc(C)c4c3)cc12 | inconclusive: 3.16 µM [activator, partial curve] |  |
| N#Cc1ccc2ccn(CC(=O)NC3CCCCC3)c2c1 |  | inconclusive: 51.8% |
| CC(C)CNC(=O)c1cccc(C(=O)NCC(C)C)c1 |  | inconclusive: 52.4% |
| COc1cc(CNC(=O)CCCC/C=C\C(C)C)ccc1O |  | inconclusive: 64.5% [at 26 µM] |
| c1csc(CCNc2ncnc3sc4c(c23)CCC4)c1 |  | inactive: -2.94% [at 2.3 µM] |
| CCOC(=O)c1ccc(NC(=O)NCc2ccncc2)cc1 |  | inconclusive: 40% |
| CN1CCC2(CC1)CCN(C(=O)c1ccncc1)CC2 |  | inactive |
| COCCCn1c2nc3ccccc3nc2c2c(=O)n(Cc3ccc(Cl)cc3)c(C)nc21 |  | inconclusive: 51% |
| CCCCOc1cccc(C(=O)O)c1 |  | inconclusive: 56.4% |
| Cc1nc(NC(C)c2ccccc2)c2oc3ccccc3c2n1 (configuration not stated) |  | inactive |
| CCOC(=O)c1ccc(NCc2ccc3c(c2)OCO3)cc1 | inconclusive: 39.8 µM [activator, single point] |  |
| O=C(c1cc2c(s1)CCCCC2)N1CCN(c2ncccn2)CC1 |  | inconclusive: 43.3% |
| Cc1ccc(C2CC(C(F)(F)F)n3ncc(C(=O)NCc4ccco4)c3N2)cc1 (configuration not stated) |  | inconclusive: 14.5% |
| O=S(=O)(Nc1ccc2c(c1)OCO2)c1ccc(Br)s1 |  | inconclusive: 5.96% |
| CSc1oc(-c2ccccc2)nc1S(=O)(=O)c1ccc(C)cc1 |  | inconclusive: 94% [at 11 µM] |
| C=CCNc1oc(-c2ccc(OCC)cc2)nc1C#N |  | inconclusive: 34.4% |
| C=CCn1c(O)c(C(CC)=NCc2cccnc2)c(=O)[nH]c1=O |  | inconclusive: 40% |
| Cc1ccc(S(=O)(=O)N2CCCC2C(=O)OCc2ccco2)cc1 (configuration not stated) |  | inconclusive: 49.6% |
